Test results from the supplement of paper PMC10849652.
This is one part of the list.

Sequences of proteins named here, by UniProt entry; tags and fusion partners are left off. A change or cut given only in a name is not applied to a line headed by its entry.
UniProt P29144: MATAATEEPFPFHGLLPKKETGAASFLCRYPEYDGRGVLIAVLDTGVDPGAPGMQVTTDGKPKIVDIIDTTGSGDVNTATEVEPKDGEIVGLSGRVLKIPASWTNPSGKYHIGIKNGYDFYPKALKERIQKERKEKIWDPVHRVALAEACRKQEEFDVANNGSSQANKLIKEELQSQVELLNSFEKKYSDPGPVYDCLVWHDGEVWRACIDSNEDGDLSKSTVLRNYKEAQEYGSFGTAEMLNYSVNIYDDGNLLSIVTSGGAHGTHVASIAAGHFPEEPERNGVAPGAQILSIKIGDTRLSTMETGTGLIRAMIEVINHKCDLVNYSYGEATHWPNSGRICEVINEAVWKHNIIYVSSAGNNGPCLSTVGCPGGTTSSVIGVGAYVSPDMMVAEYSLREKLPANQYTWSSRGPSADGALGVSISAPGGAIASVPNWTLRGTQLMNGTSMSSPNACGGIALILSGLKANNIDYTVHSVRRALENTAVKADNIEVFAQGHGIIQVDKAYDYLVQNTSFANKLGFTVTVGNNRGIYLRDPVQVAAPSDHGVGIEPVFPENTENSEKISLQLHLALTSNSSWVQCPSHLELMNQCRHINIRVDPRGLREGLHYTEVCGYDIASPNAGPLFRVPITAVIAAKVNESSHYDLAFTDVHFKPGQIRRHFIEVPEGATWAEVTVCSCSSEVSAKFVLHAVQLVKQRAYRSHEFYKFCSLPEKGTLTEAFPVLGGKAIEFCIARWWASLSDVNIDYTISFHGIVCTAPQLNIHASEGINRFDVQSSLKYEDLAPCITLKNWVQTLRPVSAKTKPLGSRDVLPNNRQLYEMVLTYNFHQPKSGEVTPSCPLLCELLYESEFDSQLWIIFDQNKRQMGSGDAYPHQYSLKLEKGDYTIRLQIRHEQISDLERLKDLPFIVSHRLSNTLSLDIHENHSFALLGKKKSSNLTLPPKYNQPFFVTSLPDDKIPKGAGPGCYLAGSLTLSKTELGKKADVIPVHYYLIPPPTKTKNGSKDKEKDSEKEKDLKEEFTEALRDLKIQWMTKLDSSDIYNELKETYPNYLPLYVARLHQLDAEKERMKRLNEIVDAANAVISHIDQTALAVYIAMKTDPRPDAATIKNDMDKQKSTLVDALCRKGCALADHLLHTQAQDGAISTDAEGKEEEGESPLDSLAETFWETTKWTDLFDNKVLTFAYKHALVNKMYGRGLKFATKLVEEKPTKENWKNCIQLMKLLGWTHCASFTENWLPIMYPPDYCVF
UniProt Q8NFQ8: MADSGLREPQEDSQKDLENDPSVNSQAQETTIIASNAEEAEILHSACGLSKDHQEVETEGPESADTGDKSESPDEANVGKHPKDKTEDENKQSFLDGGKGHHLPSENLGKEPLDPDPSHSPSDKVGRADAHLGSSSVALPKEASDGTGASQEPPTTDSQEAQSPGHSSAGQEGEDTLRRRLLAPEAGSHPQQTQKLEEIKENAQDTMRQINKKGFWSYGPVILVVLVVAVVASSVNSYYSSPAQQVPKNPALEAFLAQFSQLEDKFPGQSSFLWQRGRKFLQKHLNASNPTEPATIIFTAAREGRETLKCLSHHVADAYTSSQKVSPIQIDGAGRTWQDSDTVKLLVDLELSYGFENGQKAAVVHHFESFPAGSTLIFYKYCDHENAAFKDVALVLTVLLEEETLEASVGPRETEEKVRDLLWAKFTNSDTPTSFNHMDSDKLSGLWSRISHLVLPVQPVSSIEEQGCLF
UniProt Q12888: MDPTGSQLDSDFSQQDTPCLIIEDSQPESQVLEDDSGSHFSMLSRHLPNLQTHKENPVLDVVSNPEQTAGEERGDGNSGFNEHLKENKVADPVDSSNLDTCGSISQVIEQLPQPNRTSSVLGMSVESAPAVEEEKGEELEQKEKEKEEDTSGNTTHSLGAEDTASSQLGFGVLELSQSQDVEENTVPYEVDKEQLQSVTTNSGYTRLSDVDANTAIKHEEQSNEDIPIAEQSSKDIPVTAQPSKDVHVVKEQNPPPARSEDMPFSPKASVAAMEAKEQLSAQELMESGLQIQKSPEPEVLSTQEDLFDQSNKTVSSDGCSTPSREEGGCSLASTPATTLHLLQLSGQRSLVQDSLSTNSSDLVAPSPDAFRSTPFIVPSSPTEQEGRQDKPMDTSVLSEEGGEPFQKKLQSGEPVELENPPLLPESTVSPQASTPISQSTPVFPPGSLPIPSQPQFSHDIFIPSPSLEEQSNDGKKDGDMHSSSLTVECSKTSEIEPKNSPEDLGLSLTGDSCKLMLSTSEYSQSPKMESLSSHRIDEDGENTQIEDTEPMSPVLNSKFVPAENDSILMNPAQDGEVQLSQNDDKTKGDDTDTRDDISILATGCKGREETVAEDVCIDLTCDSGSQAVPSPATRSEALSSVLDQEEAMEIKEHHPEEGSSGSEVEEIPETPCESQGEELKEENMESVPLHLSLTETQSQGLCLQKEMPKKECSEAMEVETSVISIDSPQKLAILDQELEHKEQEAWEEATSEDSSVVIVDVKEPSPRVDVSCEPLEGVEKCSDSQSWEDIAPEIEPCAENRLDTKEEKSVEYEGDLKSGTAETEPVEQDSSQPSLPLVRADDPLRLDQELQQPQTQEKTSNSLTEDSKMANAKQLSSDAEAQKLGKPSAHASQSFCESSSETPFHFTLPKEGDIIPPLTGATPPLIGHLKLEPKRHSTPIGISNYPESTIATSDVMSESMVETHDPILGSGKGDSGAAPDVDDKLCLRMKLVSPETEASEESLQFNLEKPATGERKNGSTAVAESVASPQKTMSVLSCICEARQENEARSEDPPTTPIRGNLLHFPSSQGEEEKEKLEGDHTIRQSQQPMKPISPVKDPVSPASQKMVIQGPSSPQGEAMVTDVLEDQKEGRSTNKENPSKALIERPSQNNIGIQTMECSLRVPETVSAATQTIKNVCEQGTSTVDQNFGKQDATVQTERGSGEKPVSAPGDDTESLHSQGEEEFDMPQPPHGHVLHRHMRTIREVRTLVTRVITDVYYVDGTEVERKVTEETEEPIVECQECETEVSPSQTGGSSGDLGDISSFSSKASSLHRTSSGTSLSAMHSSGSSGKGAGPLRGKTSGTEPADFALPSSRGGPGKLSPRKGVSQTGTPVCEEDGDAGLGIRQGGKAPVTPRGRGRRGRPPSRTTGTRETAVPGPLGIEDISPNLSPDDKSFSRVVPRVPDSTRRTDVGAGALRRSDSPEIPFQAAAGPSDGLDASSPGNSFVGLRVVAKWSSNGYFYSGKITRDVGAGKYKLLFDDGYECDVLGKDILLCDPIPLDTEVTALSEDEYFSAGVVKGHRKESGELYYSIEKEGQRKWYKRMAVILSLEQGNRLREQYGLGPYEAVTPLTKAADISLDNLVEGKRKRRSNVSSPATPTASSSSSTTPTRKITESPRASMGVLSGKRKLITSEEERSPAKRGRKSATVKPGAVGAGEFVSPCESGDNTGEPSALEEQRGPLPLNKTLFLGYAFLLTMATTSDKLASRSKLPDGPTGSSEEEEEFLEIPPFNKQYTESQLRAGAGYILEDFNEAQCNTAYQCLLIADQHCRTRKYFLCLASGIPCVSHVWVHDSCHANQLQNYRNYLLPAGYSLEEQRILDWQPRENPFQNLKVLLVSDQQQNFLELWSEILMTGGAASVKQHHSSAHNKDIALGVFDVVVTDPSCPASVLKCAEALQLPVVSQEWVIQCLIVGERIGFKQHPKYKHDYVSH
UniProt Q02880: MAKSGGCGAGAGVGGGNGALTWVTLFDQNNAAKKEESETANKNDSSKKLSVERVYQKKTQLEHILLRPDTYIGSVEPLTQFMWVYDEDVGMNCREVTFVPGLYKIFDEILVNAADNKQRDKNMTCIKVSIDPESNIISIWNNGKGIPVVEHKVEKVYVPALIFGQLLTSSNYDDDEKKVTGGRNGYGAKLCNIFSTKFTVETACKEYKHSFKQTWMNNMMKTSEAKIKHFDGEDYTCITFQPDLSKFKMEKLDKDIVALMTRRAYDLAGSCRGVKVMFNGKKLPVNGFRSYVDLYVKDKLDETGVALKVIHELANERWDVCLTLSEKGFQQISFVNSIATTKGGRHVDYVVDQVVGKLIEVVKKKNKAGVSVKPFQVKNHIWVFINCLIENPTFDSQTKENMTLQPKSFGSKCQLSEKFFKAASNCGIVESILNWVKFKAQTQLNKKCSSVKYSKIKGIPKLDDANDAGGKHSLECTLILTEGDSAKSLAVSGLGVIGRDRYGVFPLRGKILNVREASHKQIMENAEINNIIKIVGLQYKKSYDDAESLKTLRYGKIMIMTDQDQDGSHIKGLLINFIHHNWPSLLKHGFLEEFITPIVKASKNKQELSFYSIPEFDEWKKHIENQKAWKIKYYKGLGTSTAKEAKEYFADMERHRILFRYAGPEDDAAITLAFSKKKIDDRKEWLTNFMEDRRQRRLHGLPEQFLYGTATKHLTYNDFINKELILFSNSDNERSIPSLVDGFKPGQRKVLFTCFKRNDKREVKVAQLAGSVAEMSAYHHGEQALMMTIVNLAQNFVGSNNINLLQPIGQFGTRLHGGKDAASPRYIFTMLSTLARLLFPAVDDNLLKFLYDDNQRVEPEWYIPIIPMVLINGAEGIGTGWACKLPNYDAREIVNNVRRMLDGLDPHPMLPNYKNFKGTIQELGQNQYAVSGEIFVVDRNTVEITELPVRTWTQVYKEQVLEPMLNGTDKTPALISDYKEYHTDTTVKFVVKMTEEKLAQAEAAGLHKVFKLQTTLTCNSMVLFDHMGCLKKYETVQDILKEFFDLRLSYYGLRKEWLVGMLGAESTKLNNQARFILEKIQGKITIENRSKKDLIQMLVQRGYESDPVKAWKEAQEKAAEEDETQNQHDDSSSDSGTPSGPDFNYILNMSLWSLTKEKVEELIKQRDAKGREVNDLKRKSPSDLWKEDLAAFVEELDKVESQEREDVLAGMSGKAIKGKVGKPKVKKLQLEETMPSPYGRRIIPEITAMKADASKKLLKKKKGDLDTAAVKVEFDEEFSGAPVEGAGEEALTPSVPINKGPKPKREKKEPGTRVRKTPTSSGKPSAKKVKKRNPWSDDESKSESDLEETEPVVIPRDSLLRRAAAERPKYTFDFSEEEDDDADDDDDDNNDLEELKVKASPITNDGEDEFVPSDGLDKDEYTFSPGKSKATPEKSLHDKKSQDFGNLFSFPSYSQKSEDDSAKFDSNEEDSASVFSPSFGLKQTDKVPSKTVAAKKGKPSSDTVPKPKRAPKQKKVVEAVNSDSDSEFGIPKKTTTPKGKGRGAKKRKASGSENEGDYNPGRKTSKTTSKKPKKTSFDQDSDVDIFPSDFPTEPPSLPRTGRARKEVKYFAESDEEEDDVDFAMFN
UniProt Q8N511: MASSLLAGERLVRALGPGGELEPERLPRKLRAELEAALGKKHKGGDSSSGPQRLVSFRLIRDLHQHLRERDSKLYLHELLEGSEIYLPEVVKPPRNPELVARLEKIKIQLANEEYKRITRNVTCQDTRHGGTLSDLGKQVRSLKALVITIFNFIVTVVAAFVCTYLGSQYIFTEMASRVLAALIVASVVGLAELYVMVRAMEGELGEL
UniProt Q86XT9, whole entry, looked up: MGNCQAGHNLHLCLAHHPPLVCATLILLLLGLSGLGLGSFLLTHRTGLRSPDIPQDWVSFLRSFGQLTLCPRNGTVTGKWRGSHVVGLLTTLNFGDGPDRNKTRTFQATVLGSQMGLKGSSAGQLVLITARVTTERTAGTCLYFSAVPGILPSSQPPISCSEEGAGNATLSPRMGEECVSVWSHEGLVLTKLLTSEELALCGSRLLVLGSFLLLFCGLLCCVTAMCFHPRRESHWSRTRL
UniProt Q8IY95: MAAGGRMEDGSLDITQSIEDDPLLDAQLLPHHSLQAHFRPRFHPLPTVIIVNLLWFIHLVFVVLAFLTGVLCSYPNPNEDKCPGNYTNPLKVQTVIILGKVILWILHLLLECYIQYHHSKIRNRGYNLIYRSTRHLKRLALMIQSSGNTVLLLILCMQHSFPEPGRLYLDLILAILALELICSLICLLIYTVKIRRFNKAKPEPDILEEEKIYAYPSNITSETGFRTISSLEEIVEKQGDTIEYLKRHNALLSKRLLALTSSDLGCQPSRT
UniProt P20333, whole entry, looked up: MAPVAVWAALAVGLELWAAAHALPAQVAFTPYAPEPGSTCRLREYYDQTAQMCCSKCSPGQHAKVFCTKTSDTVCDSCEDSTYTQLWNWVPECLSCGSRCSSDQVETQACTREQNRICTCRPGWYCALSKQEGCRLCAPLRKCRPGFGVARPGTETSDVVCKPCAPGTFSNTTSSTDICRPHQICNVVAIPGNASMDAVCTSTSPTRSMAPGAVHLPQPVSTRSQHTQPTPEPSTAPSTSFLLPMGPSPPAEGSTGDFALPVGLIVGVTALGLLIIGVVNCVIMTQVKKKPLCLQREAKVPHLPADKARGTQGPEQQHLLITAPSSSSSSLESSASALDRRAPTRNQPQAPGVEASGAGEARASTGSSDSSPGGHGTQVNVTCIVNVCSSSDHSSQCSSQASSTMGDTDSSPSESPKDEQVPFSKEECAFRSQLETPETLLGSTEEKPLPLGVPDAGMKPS

Each target was assayed with C1=CC2=C(C=CC(=C2)/C=C\3/C(=O)NC(=NCC4=CC=CS4)S3)N=C1 (assay: log2 fold change, soluble protein after heating vs DMSO (PISA); higher = thermal stabilisation; K562 lysate, 10 uM; active = over 0.2 and 3.5 SD of the protein, either way, in both replicates (recomputed)).
How it was run: (§1)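 K562 pellets were dounce-homogenised in PBS pH 7.4 containing 1 mM MgCl2, and the crude extract, at 1 mg/mL protein, was exposed to 10 μM compound for 30 min. Aliquots were heated for 3 min across 48°C-58°C, pooled, brought to 0.5% NP-40 at 4°C and spun at 21,000xg for 90 min, with the supernatant taken as soluble protein. TMTpro 16plex LC-MS/MS with equalised channel sums quantified that protein. Values are log-two fold changes in thermal stability relative to solvent controls, taken from duplicates.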

log2 fold change, inactive:
TPI1 (UniProt P60174) 0.012
TMOD3 (UniProt Q9NYL9) 0.016
TOR1AIP1 isoform 3 (UniProt Q5JTV8) 0.006
TNPO1 (UniProt Q92973) 0.001
TPP2 (UniProt P29144) 0.001
TOR1AIP2 (UniProt Q8NFQ8) -0.009
TP53BP1 isoform 2 (UniProt Q12888) 0.008
TP53BP2 isoform 3 (UniProt Q13625) 0.024
TMEM245 (UniProt Q9H330) 0.006
TPM1 isoform 4 (UniProt P09493) 0.018
TPM4 (UniProt P67936) 0.058
TMTC3 (UniProt Q6ZXV5) -0.069
TOP2B isoform 2 (UniProt Q02880) 0.057
TOP1 (UniProt P11387) 0.016
TOX4 (UniProt O94842) 0.037
TNFRSF8 (UniProt P28908) -0.011
TMEM63A (UniProt O94886) -0.031
TPP2 (UniProt Q5VZU9) -0.012
TMEM199 (UniProt Q8N511) 0.032
TPD52L2 isoform 7 (UniProt O43399) 0.015
TOP2A isoform 4 (UniProt P11388) 0.043
TOP3A (UniProt Q13472) -0.056
TMEM219 (UniProt Q86XT9) 0.106
TMEM9B (UniProt Q9NQ34) -0.057
TMX3 (UniProt Q96JJ7) -0.01
TPR (UniProt P12270) -0.005
TMEM192 (UniProt Q8IY95) 0.012
TPX2 (UniProt Q9ULW0) -0.022
TNFRSF1B (UniProt P20333) -0.101
TPP1 (UniProt O14773) 0.018
TP53I3 (UniProt Q53FA7) -0.003
TMEM43 (UniProt Q9BTV4) 0.006
TNFAIP8 isoform 4 (UniProt O95379) -0.038

Each target was assayed with C1=CC2=NC=CN=C2C=C1/C=C/3\C(=O)NC(=O)S3 in the same assay as above.
How it was run: as §1

log2 fold change, inactive:
TPI1 (UniProt P60174) -0.019
TMOD3 (UniProt Q9NYL9) 0.033
TOR1AIP1 isoform 3 (UniProt Q5JTV8) -0.028
TNPO1 (UniProt Q92973) 0.017
TPP2 (UniProt P29144) 0.006
TOR1AIP2 (UniProt Q8NFQ8) -0.02
TP53BP1 isoform 2 (UniProt Q12888) -0.01
TP53BP2 isoform 3 (UniProt Q13625) -0.101
TMEM245 (UniProt Q9H330) -0.033
TPM1 isoform 4 (UniProt P09493) 0.114
TPM4 (UniProt P67936) -0.012
TMTC3 (UniProt Q6ZXV5) 0.049
TOP2B isoform 2 (UniProt Q02880) -0.011
TOP1 (UniProt P11387) 0.014
TOX4 (UniProt O94842) -0.052
TNFRSF8 (UniProt P28908) -0.022
TMEM63A (UniProt O94886) 0.009
TPP2 (UniProt Q5VZU9) 0
TMEM199 (UniProt Q8N511) 0.018
TPD52L2 isoform 7 (UniProt O43399) 0
TOP2A isoform 4 (UniProt P11388) -0.008
TOP3A (UniProt Q13472) -0.014
TMEM219 (UniProt Q86XT9) -0.062
TMEM9B (UniProt Q9NQ34) 0.025
TMX3 (UniProt Q96JJ7) 0.014
TPR (UniProt P12270) -0.01
TMEM192 (UniProt Q8IY95) -0.036
TPX2 (UniProt Q9ULW0) -0.013
TNFRSF1B (UniProt P20333) -0.04
TPP1 (UniProt O14773) 0.009
TP53I3 (UniProt Q53FA7) 0.018
TMEM43 (UniProt Q9BTV4) -0.014
TNFAIP8 isoform 4 (UniProt O95379) 0.002

These targets were tested with C1=CC=C(C=C1)C2=NC(=C(N2)C3=CC=NC=C3)C4=CC(=C(C=C4)Cl)O in the same assay as above.
How it was run: as §1

log2 fold change, inactive:
TPI1 (UniProt P60174) 0.003
TMOD3 (UniProt Q9NYL9) 0
TOR1AIP1 isoform 3 (UniProt Q5JTV8) -0.016
TNPO1 (UniProt Q92973) -0.021
TPP2 (UniProt P29144) 0
TOR1AIP2 (UniProt Q8NFQ8) -0.018
TP53BP1 isoform 2 (UniProt Q12888) -0.004
TP53BP2 isoform 3 (UniProt Q13625) 0.005
TMEM245 (UniProt Q9H330) 0.012
TPM1 isoform 4 (UniProt P09493) -0.026
TPM4 (UniProt P67936) 0.001
TMTC3 (UniProt Q6ZXV5) -0.031
TOP2B isoform 2 (UniProt Q02880) 0.009
TOP1 (UniProt P11387) 0.014
TOX4 (UniProt O94842) 0.04
TNFRSF8 (UniProt P28908) -0.003
TMEM63A (UniProt O94886) -0.017
TPP2 (UniProt Q5VZU9) 0.131
TMEM199 (UniProt Q8N511) -0.013
TPD52L2 isoform 7 (UniProt O43399) 0.017
TOP2A isoform 4 (UniProt P11388) 0.007
TOP3A (UniProt Q13472) -0.042
TMEM219 (UniProt Q86XT9) -0.038
TMEM9B (UniProt Q9NQ34) -0.021
TMX3 (UniProt Q96JJ7) 0.004
TPR (UniProt P12270) 0.003
TMEM192 (UniProt Q8IY95) 0.009
TPX2 (UniProt Q9ULW0) 0.019
TNFRSF1B (UniProt P20333) -0.034
TPP1 (UniProt O14773) -0.005
TP53I3 (UniProt Q53FA7) 0.004
TMEM43 (UniProt Q9BTV4) -0.02
TNFAIP8 isoform 4 (UniProt O95379) 0.026
